Test results reported in the supplement of paper PMC8858631.
Structures can show the parent of a compound that is named as a salt. The list shows a part of the results. Cut-off read from the data, not from the text of the source: active = 0.5 or less and inactive = the rest. Repeats are few or missing, and single values can be far off.

What follows are compounds tested on SK-MEL-28 (assay: EEF2K protein level normalised to actin (western blot) after treatment (ratio (EEF2K/Actin)); higher = more EEF2K protein remaining (less EEF2K suppression)). Details: 5 µM; 24 h.
`COc1cc2nccc(Oc3ccc(NC(=O)C4(C(=O)Nc5ccc(F)cc5)CC4)cc3)c2cc1OC` was tested, and the “EEF2K protein level normalised to actin” value was inactive: 1.25. In the case of `CC/C(=C(/CC)c1ccc(O)cc1)c1ccc(O)cc1` [Diethylstilbestrol], the “EEF2K protein level normalised to actin” value was inactive: 0.67. For `NC(=O)NO` [Hydroxyurea], the “EEF2K protein level normalised to actin” value was inactive: 0.64. In the case of `Nc1nc2[nH]cc(CCc3ccc(C(=O)N[C@@H](CCC(=O)O)C(=O)O)cc3)c2c(=O)[nH]1` [Pemetrexed], the “EEF2K protein level normalised to actin” value was inactive: 1.83. For `Cc1cn(-c2cc(NC(=O)c3ccc(C)c(Nc4nccc(-c5cnccn5)n4)c3)cc(C(F)(F)F)c2)cn1` [Radotinib], the “EEF2K protein level normalised to actin” value was inactive: 1.3. `CNC(=O)c1cc(Oc2ccc(NC(=O)Nc3ccc(Cl)c(C(F)(F)F)c3)c(F)c2)ccn1` [Regorafenib Monohydrate] was tested, and the “EEF2K protein level normalised to actin” value was inactive: 1.17. For `Cn1nnc2c(C(N)=O)ncn2c1=O` [Temozolomide], the “EEF2K protein level normalised to actin” value was inactive: 0.84. For `C[C@H](Nc1ncnc2nc[nH]c12)c1cc2cccc(Cl)c2c(=O)n1-c1ccccc1` [Duvelisib (IPI-145, INK1197)], the “EEF2K protein level normalised to actin” value was inactive: 1.57. With `Nc1n[n+]([O-])c2ccccc2[n+]1[O-]` [Tirapazamine] the “EEF2K protein level normalised to actin” value was inactive: 2.22. `Nc1nc(=O)c2c([nH]1)NCC(CNc1ccc(C(=O)N[C@@H](CCC(=O)O)C(=O)O)cc1)N2C=O` (stereo partly drawn) [Leucovorin Calcium Pentahydrate] was tested, and the “EEF2K protein level normalised to actin” value was inactive: 0.91. `O=C1Nc2ccccc2/C1=C1/Nc2ccccc2C1=O` [Indirubin] was tested, and the “EEF2K protein level normalised to actin” value was inactive: 3.13. In the case of `Cc1ccc(Nc2nccc(N(C)c3ccc4c(C)n(C)nc4c3)n2)cc1S(N)(=O)=O`, the “EEF2K protein level normalised to actin” value was inactive: 0.75. With `S=P(N1CC1)(N1CC1)N1CC1` [Thiotepa] the “EEF2K protein level normalised to actin” value was inactive: 1.32. In the case of `O=C(O)C1(C(=O)O)CCC1.[NH2-].[NH2-].[Pt+2]` [Carboplatin], the “EEF2K protein level normalised to actin” value was inactive: 1.06. For `COc1ccc2[nH]c([S@@+]([O-])Cc3ncc(C)c(OC)c3C)nc2c1` [Esomeprazole sodium], the “EEF2K protein level normalised to actin” value was inactive: 1.67. For `Nc1nc2[nH]cc(CCc3ccc(C(=O)N[C@@H](CCC(=O)O)C(=O)O)cc3)c2c(=O)[nH]1` [Pemetrexed Disodium Hydrate], the “EEF2K protein level normalised to actin” value was inactive: 0.58. For `CC(C)=CCC[C@](C)(O[C@@H]1O[C@H](CO)[C@@H](O)[C@H](O)[C@H]1O)[C@H]1CC[C@]2(C)[C@@H]1[C@H](O)C[C@@H]1[C@@]3(C)CC[C@H](O)C(C)(C)[C@@H]3[C@@H](O[C@@H]3O[C@H](CO)[C@@H](O)[C@H](O)[C@H]3O)C[C@]12C` [Ginsenoside Rg1], the “EEF2K protein level normalised to actin” value was inactive: 2.03. `COc1cc(Nc2c(C#N)cnc3cc(OCCCN4CCN(C)CC4)c(OC)cc23)c(Cl)cc1Cl` [Bosutinib (SKI-606)] was tested, and the “EEF2K protein level normalised to actin” value was inactive: 0.67. With `Cc1c(C(=O)Nc2ccc(N3C[C@@H](C)O[C@@H](C)C3)nc2)cccc1-c1ccc(OC(F)(F)F)cc1` [Sonidegib (Erismodegib, NVP-LDE225)] the “EEF2K protein level normalised to actin” value was inactive: 4.28. For `Cc1cccc(N(C)C(=S)Oc2ccc3ccccc3c2)c1` [Tolnaftate], the “EEF2K protein level normalised to actin” value was inactive: 3.55. For `Nc1nc(F)nc2c1ncn2[C@@H]1O[C@H](CO)[C@@H](O)[C@@H]1O` [Fludarabine], the “EEF2K protein level normalised to actin” value was active: 0.15. With `CN(C)CCN1C(=O)c2cccc3cc(N)cc(c23)C1=O` [Amonafide] the “EEF2K protein level normalised to actin” value was inactive: 0.78. In the case of `CC#CCn1c(N2CCC[C@@H](N)C2)nc2c1c(=O)n(Cc1nc(C)c3ccccc3n1)c(=O)n2C` [Linagliptin], the “EEF2K protein level normalised to actin” value was inactive: 0.51. With `C#Cc1cccc(Nc2ncnc3cc4c(cc23)OCCOCCOCCO4)c1` [Icotinib] the “EEF2K protein level normalised to actin” value was inactive: 1.09. In the case of `Cc1c(-c2ccc(O)cc2)n(Cc2ccc(OCCN3CCCCCC3)cc2)c2ccc(O)cc12` [Bazedoxifene HCl], the “EEF2K protein level normalised to actin” value was inactive: 3.83. With `COc1ccc2cc1Oc1ccc(cc1)C[C@H]1c3cc(c(OC)cc3CCN1C)Oc1c(O)c(OC)cc3c1[C@H](C2)N(C)CC3` [Fangchinoline] the “EEF2K protein level normalised to actin” value was inactive: 0.79. `CC(=O)OCC(=O)[C@@]1(O)CC[C@H]2[C@@H]3CCC4=CC(=O)CC[C@]4(C)[C@H]3C(=O)C[C@@]21C` [Cortisone acetate] was tested, and the “EEF2K protein level normalised to actin” value was inactive: 2.34. For `CCNC(=O)[C@@H]1CCCN1C(=O)[C@H](CCCNC(=N)N)NC(=O)[C@H](CC(C)C)NC(=O)[C@@H](CC(C)C)NC(=O)[C@H](Cc1ccc(O)cc1)NC(=O)[C@H](CO)NC(=O)[C@H](Cc1c[nH]c2ccccc12)NC(=O)[C@H](Cc1c[nH]cn1)NC(=O)[C@@H]1CCC(=O)N1` [Leuprolide Acetate], the “EEF2K protein level normalised to actin” value was inactive: 1.75.
